Data as given in publication PMC2956079.
Results are given in words; binding and its absence hold for the method and conditions named. In cells and extracts the contact can be indirect. Some entries that bind do so weakly or less than the wild type.

Key:
[1] = molecular target: P-glycoprotein (Pgp), endogenous in MCF-7/ADR cells (human (endogenous in MCF-7/ADR)) (UniProt P08183); assay: co-IP; cell extracts in IP buffer (20 mM Hepes, 0.2 mM EDTA, 5% glycerol, 150 mM NaCl, 1% Nonidet P-40, protease inhibitors); IP with Pgp antibody (C219, Calbiochem); four washes in IP buffer; Western blot with p53 antibody (DO-1, Sigma); rabbit IgG as control
[2] = molecular target: P-glycoprotein (Pgp), expressed from a Pgp expression plasmid in MCF-7 cells (human) (UniProt P08183); assay: as above

p53 (from UniProt P04637 1-393)
binding [1]: binds | binding [2]: binds
